Reference: the supplement of paper PMC3682954
Structures can show the parent of a compound that is named as a salt. ± gives the standard deviation of the averaged measurements. This is one part of the list. Repeats are few or missing, and single values can be far off.

Test system: RAW 264.7
Assay: cell viability (MTT) relative to vehicle control; higher = more viable cells
Conditions: stimulus: HMGB1 5 ug/ml, 18 h
[1] = compound concentration: 1 ug/ml

Row | Structure (SMILES) | cell viability (compound concentration: 3 uM) [%] | cell viability [1] [%]
1 | C[C@H]1O[C@@H](n2cc(F)c(=O)[nH]c2=O)[C@H](O)[C@@H]1O [5-fluoro-5'-deoxyuridine] | 108 | –
2 | C[C@H]1O[C@@H](n2cc(F)c(=O)[nH]c2=O)[C@H](O)[C@@H]1O | 114 | –
3 | C[C@H]1O[C@@H](n2cc(F)c(=O)[nH]c2=O)[C@H](O)[C@@H]1O [Doxifluridine] | 98.3 | –
4 | O=C(O)C=C1CCCc2ccccc2C1O (stereo not drawn) | 113 | –
5 | OCCN1CCN(CCCN2c3ccccc3C=Cc3ccccc32)CC1 [Opipramol dihydrochloride] | 105 ± 9.5 | –
6 | CN(C/C=C/c1ccccc1)Cc1cccc2ccccc12 [Naftifine hydrochloride] | 98.6 | –
7 | CC(=O)O[C@@H]1C[C@]2(C)[C@@H](C(C)=O)CC[C@H]2[C@@H]2CCC3=CC(=O)CC[C@]3(C)[C@H]21 [11-alpha-Acetoxyprogesterone] | – | 99.9
8 | CC(=O)CCCCn1c(=O)c2c(ncn2C)n(C)c1=O [Pentoxifylline] | 99.3 ± 4.7 | –
9 | CC(=O)CCCCn1c(=O)c2c(ncn2C)n(C)c1=O | 107 | –
10 | CN1C(=O)OC(C)(C)C1=O | 103 | –
11 | CN1C(=O)OC(C)(C)C1=O [Trimethadione] | 90.3 | –
12 | O=C(NCCN1CCOCC1)c1ccc(Cl)cc1 [Moclobemide] | 101 ± 15 | –
13 | O=C(NCCN1CCOCC1)c1ccc(Cl)cc1 [4-Chloro-N-(2-morpholin-4-yl-ethyl)-benzamide] | 93.2 | –
14 | Cc1c(C(=O)O)c(O)cc2c1C(=O)c1c(O)c([C@H]3O[C@H](CO)[C@@H](O)[C@H](O)[C@H]3O)c(O)c(O)c1C2=O | – | 95.8
15 | O=C(CCc1ccc(O)cc1)c1c(O)cc(O)cc1O[C@@H]1OC(CO)[C@@H](O)[C@@H](O)C1O (stereo partly drawn) [Phloridzin] | 96.4 | –
16 | Cc1onc(-c2c(F)cccc2Cl)c1C(=O)N[C@@H]1C(=O)N2[C@@H]1SC(C)(C)[C@@H]2C(=O)O [Flucloxacillin sodium] | 70.2 | –
17 | CCCC(CCC)C(=O)O[C@H]1C[C@H]2CC[C@@H](C1)[N+]2(C)C [Anisotropine methyl bromide] | 102 | –
18 | NCCNCCNCCN | 107 | –
19 | CN(C)CCCSC(=N)N [Dimaprit dihydrochloride] | 83.8 | –
20 | Nc1ccc(C(=O)O)cc1 | 118 | –
21 | CCN1CCCC(OC(=O)C(c2ccccc2)c2ccccc2)C1 (stereo not drawn) [Piperidolate hydrochloride] | 99.2 | –
22 | CCN1CCCC(OC(=O)C(c2ccccc2)c2ccccc2)C1 (stereo not drawn) | 105 | –
23 | NS(=O)(=O)c1cc(Cl)c(Cl)c(S(N)(=O)=O)c1 [Dichlorphenamide] | 103 | –
24 | CCCCCNC(=N)N/N=C/c1c[nH]c2ccc(OC)cc12 | 97.3 | –
25 | O=C(Oc1ccccc1C(=O)O)c1ccccc1O | 108 | –
26 | O=C(O)c1ccc(S(=O)(=O)N(Cl)Cl)cc1 | 109 | –

Row | Structure (SMILES) | cell viability (compound concentration: 3 uM) [%] | cell viability [1] [%]
27 | COc1c(C)c2c(c(O)c1C/C=C(\C)CCC(=O)O)C(=O)OC2 | 47.9 ± 22 | –
28 | COc1c(C)c2c(c(O)c1C/C=C(\C)CCC(=O)O)C(=O)OC2 [Mycophenolic Acid] | 51.9 | –
29 | COc1c(C)c2c(c(O)c1C/C=C(\C)CCC(=O)O)C(=O)OC2 [Mycophenolic acid] | – | 57.7
30 | OC[C@H]1O[C@@H](n2cnc3c(NCc4ccccc4)ncnc32)[C@H](O)[C@@H]1O [6-Benzylaminopurine riboside] | – | 93.5
31 | CCCCCCCCCC[Si](C)(C)CCC(=O)NC(Cc1ccc(C)cc1)c1ccccc1 (stereo not drawn) [Sandoz 58-035] | 102 | –
32 | N.N.O=C([O-])C[O-].[Pt+2] [Nedaplatin] | 106 | –
33 | COC(=O)N[C@H](C(=O)N[C@@H](Cc1ccccc1)[C@@H](O)CN(Cc1ccc(-c2ccccn2)cc1)NC(=O)[C@@H](NC(=O)OC)C(C)(C)C)C(C)(C)C [Atazanavir] | 111 | –
34 | Nc1ccc(S(=O)(=O)Nc2cnc3ccccc3n2)cc1 [Sulfaquinoxaline sodium salt] | 133 | –
35 | Nc1ccc(S(=O)(=O)Nc2cnc3ccccc3n2)cc1 | 114 | –
36 | CNC[C@H](O)[C@@H](O)[C@H](O)[C@H](O)CO [Meglumine] | 90.81 ± 0.66 | –
37 | NCCCC(O)(P(=O)(O)O)P(=O)(O)O [Alendronate] | 105 | –
38 | NCCCC(O)(P(=O)(O)O)P(=O)(O)O [Alendronate sodium] | 116 | –
39 | NCCCC(O)(P(=O)(O)O)P(=O)(O)O | 101.41 ± 0.035 | –
40 | N=C(N)NCc1cccc(I)c1 [Iobenguane sulfate] | 108 | –
41 | CCCCS(=N)(=O)CCC(N)C(=O)O (racemic) [DL-Buthionine-[S,R]-sulfoximine] | 92.5 | –
42 | O=c1c(O)c(-c2ccccc2)oc2cccc(O)c12 [3,5-Dihydroxyflavone] | – | 103
43 | CCC[S+]([O-])c1ccc2[nH]c(NC(=O)OC)nc2c1 (stereo not drawn) [Ricobendazole] | 96 | –
44 | NC(=O)OCC(COC(N)=O)c1ccccc1 [Felbamate] | 103 ± 9.3 | –
45 | Cc1ccnc(NS(=O)(=O)c2ccc(N)cc2)n1 | 98.1 | –
46 | Cc1ccnc(NS(=O)(=O)c2ccc(N)cc2)n1 [Sulfamerazine] | 110 | –
47 | C[C@H]1NC(=O)NC1=O [Methylhydantoin-5-(D)] | 94.7 | –
48 | COCc1nc2c([nH]1)c(=O)n(C)c(=O)n2CC(C)C [8-Methoxymethyl-3-isobutyl-1-methylxanthine] | 102 | –
49 | [O-][n+]1cccc(CO)c1 | 117 | –
50 | CCCCC/C=C/CCC(=O)N[C@H]1[C@H](Oc2c3cc4cc2Oc2ccc(cc2Cl)[C@@H](O[C@@H]2O[C@H](CO)[C@@H](O)[C@H](O)[C@H]2NC(C)=O)[C@@H]2NC(=O)[C@H](NC(=O)[C@@H]4NC(=O)[C@H]4NC(=O)C(Cc5ccc(c(Cl)c5)O3)NC(=O)[C@H](N)c3ccc(O)c(c3)Oc3cc(O)cc4c3)c3ccc(O)c(c3)-c3c(OC4O[C@H](CO)[C@@H](O)[C@H](O)[C@@H]4O)cc(O)cc3[C@@H](C(=O)O)NC2=O)O[C@H](CO)[C@@H](O)[C@@H]1O (stereo partly drawn) [TEICOPLANIN [A(2-1) shown]] | 114 | –
51 | COc1ccc(C[C@H](N)C(=O)N[C@H]2[C@@H](O)[C@H](n3cnc4c(N(C)C)ncnc43)O[C@@H]2CO)cc1 [Puromycin] | 48.6 | –
52 | COc1ccc(C[C@H](N)C(=O)N[C@H]2[C@@H](O)[C@H](n3cnc4c(N(C)C)ncnc43)O[C@@H]2CO)cc1 | 115 | –

Single records, as listed above. Order of values: cell viability (compound concentration: 3 uM) [%]	cell viability [1] [%]
NC(=O)OCC(COC(N)=O)c1ccccc1 [Felbamate] is listed with 103 ± 9.3	–
CC(=O)CCCCn1c(=O)c2c(ncn2C)n(C)c1=O is listed with 107	–
NS(=O)(=O)c1cc(Cl)c(Cl)c(S(N)(=O)=O)c1 [Dichlorphenamide] is listed with 103	–
O=C(NCCN1CCOCC1)c1ccc(Cl)cc1 [Moclobemide] is listed with 101 ± 15	–

The list continues:

Row | Structure (SMILES) | cell viability (compound concentration: 3 uM) [%] | cell viability [1] [%]
53 | CCCCCC(O)c1cccc(OCc2ccc3ccccc3n2)c1 (stereo not drawn) | 125 | –
54 | CC(C)(C)c1ccc(C(=O)CCCN2CCC(OC(c3ccccc3)c3ccccc3)CC2)cc1 [Ebastine] | 106 | –
55 | O=c1ccn([C@@H]2O[C@H](CO)[C@@H](O)[C@H]2O)c(=O)[nH]1 [Uridine;  1-beta-D-Ribofuranosyluracil] | – | 97.4
56 | CC(C)n1c(/C=C/C(O)CC(O)CC(=O)O)c(-c2ccc(F)cc2)c2ccccc21 (stereo not drawn) [Fluvastatin sodium salt] | 111 | –
57 | CC(C)n1c(/C=C/C(O)CC(O)CC(=O)O)c(-c2ccc(F)cc2)c2ccccc21 (stereo not drawn) | 105 | –
58 | CC(C)n1c(/C=C/C(O)CC(O)CC(=O)O)c(-c2ccc(F)cc2)c2ccccc21 (stereo not drawn) [Fluvastatin] | 127 | –
59 | O=c1ncc(F)c[nH]1 [5-fluoro-2-pyrimidone] | 99 | –
60 | CC(=O)Oc1ccccc1C(=O)Oc1ccccc1C(=O)O [Acetylsalicylsalicylic acid] | 86.1 | –
61 | CNC(=O)c1c(I)c(C(=O)NCC(=O)Nc2c(I)c(C(=O)O)c(I)c(C(=O)NCCO)c2I)c(I)c(N(C)C(C)=O)c1I [Ioxaglic acid] | 95.8 | –
62 | CCCCNc1cc(C(=O)O)cc(S(N)(=O)=O)c1Oc1ccccc1 | 103 | –
63 | CCCCNc1cc(C(=O)O)cc(S(N)(=O)=O)c1Oc1ccccc1 [Bumetanide] | 101 ± 5.6 | –
64 | Cc1c(C)c2c(c(C)c1O)CCC(C)(C(=O)O)O2 (stereo not drawn) [Trolox] | 83.8 | –
65 | CC[C@H](C)C(=O)O[C@H]1C[C@@H](C)C=C2C=C[C@H](C)[C@H](CC[C@@H]3C[C@@H](O)CC(=O)O3)[C@H]21 | 118 | –
66 | CC[C@H](C)C(=O)O[C@H]1C[C@@H](C)C=C2C=C[C@H](C)[C@H](CC[C@@H]3C[C@@H](O)CC(=O)O3)[C@H]21 [Mevinolin; Lovastatin] | – | 100
67 | CC[C@H](C)C(=O)O[C@H]1C[C@@H](C)C=C2C=C[C@H](C)[C@H](CC[C@@H]3C[C@@H](O)CC(=O)O3)[C@H]21 [Lovastatin] | 111 ± 14 | –
68 | NC1CCN(O)C1=O (racemic) | 105 | –
69 | CCOC(=O)[C@@H](N)Cc1ccccc1 [Phenylalanine ethyl ester hydrochloride] | – | 94.2
70 | Cn1ccnc1 [1-Methylimidazole] | 111 | –
71 | CCN(CC)CCOC(=O)c1ccc(N)cc1 [Procaine hydrochloride] | 101 ± 8.1 | –
72 | CCN(CC)CCOC(=O)c1ccc(N)cc1 | 98.5 | –
73 | CC(=O)CCCCn1cnc2c1c(=O)n(C)c(=O)n2C | 91.6 | –
74 | O=C1C2OCC(O2)[C@@H]2[C@@H]1[C@@H]1c3ccccc3C=CN1[C@H]2C(=O)c1ccccc1 (stereo partly drawn) | – | 101
75 | COc1cc2oc(-c3ccccc3)cc(=O)c2cc1OC | – | 85.7
76 | CC(=O)O[C@H]1C[C@@]2(C)[C@@H](C[C@@H](O)[C@H]3[C@@]4(C)CC[C@@H](O)[C@@H](C)[C@@H]4CC[C@@]32C)/C1=C(\CCC=C(C)C)C(=O)O | 107 | –
77 | CC(=O)O[C@H]1C[C@@]2(C)[C@@H](C[C@@H](O)[C@H]3[C@@]4(C)CC[C@@H](O)[C@@H](C)[C@@H]4CC[C@@]32C)/C1=C(\CCC=C(C)C)C(=O)O [Fusidic acid sodium salt] | 106 | –
78 | CC(=O)O[C@H]1C[C@@]2(C)[C@@H](C[C@@H](O)[C@H]3[C@@]4(C)CC[C@@H](O)[C@@H](C)[C@@H]4CC[C@@]32C)/C1=C(\CCC=C(C)C)C(=O)O [Fusidic acid sodium] | 106 | –
